Source: article PMC10290130, “The potential of phenothiazinium dyes as cytotoxicity markers in cisplatin-treated cells” (Scientific Reports, 2023)

How the values were obtained:
Vero cells [1] = assay: Light microscopy of phenothiazinium dye accumulation in cells; format: cell-based, African green monkey; settings: light microscope, 3 h; for pattern of dye accumulation in cells: 100-12.5 µM
Experimental: The accumulation of phenothiazine dyes in cells was detected by light and confocal microscopies. Firstly, Vero cells were incubated with MB, NMB, TBO, and DMMB (100, 50, 25 and 12.5 µM) for 3 h, 37 °C, 5% CO2 and washed with PBS. […] For confocal detection of phenothiazinium dyes, Vero cell cultures were incubated with 10 μM of MB, NMB, TBO or DMMB for 30 min, 37 °C, with 5% CO2. For all procedures, non-treated controls were incubated with RPMI under the same conditions. The cultures were washed with PBS and treated with trypsin for 10 min, 37 °C and 5% CO2. The cells were transferred to slides and analyzed by confocal microscopy with excitation/emission wavelengths of 543/600 nm, respectively.

Vero cells [2] = assay: Visible spectra of cell extracts, area under the spectral curve (intracellular dye); settings: 380-800 nm
Vero cells [3] = assay: Sensitivity assay for the detection of phenothiazinium dyes in cells; format: cell-based, African green monkey; settings: for minimum limit for detection of dye in cells (detected in concentrations above): 3 h incubation, 96-well monolayer
[4] = dye at 100 µM, calculated using the linear regression equation

Structure (SMILES) | localisation of dye in cells (Vero cells [1]) | area under the absorbance curve of cell extract (Vero cells [2]; 1 h, dye 100 µM (NR 173 µM)) | area under the absorbance curve of cell extract (Vero cells [2]; 4 h, dye 100 µM (NR 173 µM)) | pattern of dye accumulation in cells (Vero cells [1]) | concentration up to which absorbance/concentration correlation was observed (Vero cells [3]; 3 h) | minimum limit for detection of dye in cells (detected in concentrations above) (Vero cells [3]) | absorbance of extracted dye (Vero cells [3]; [4]) | absorbance of extracted dye (Vero cells [3]; dye at 125 µM, 3 h) | area under the absorbance curve of cell extract (Vero cells [2]; 2 h, dye 100 µM) | area under the absorbance curve of cell extract (Vero cells [2]; 3 h, dye 100 µM)
Cc1cc2nc3ccc(N(C)C)cc3nc2cc1N.Cl [NR, 3-amino-7-dimethylamino-2-methylphenazine hydrochloride] | accumulated mostly in the cell cytoplasm | 5.5 | 10.96 |  |  |  |  |  |  | 
Cc1cc2nc3ccc(N(C)C)cc3[s+]c2cc1N.[Cl-] [TBO, 3-amino-7-(dimethylamino)-2-methylphenothiazin-5-ium chloride] | affinity to large nucleoli | 10.63 | 13.97 | heterogeneous accumulation pattern | ≤ 62 µM | > 15.6 µM and > 31.2 µM | 0.35 | 0.29 | 11.87 | 13.58
CCNc1cc2[s+]c3cc(NCC)c(C)cc3nc2cc1C.[Cl-] [NMB, 3,7-bis(ethylamino)-2,8-dimethylphenothiazin-5-ium chloride] | found in the cell cytoplasm | 14.3 | 20.5 | stained uniformly |  | > 7.8 µM | 0.39 |  | 17.3 | 19.9
CN(C)c1ccc2nc3ccc(N(C)C)cc3[s+]c2c1.[Cl-] [MB, 3,7-bis[dimethylamino]phenothiazin-5-ium chloride] |  | 8.25 | 12.10 | heterogeneous accumulation pattern |  |  | 0.34 |  | 9.84 | 10.38
Cc1cc(N(C)C)cc2[s+]c3cc(N(C)C)cc(C)c3nc12.[Cl-] [DMMB, 3,7-bis(dimethylamino)-1,9-dimethylphenothiazin-5-ium chloride] | found in the cell cytoplasm | 13.3 | 21.9 | stained uniformly |  | > 7.8 µM | 0.50 | 0.53 | 17.7 | 19.6

Values joined by “and” are separate entries in the source; they are usually repeats but may differ in a detail not shown here. Identical values can stand only once.
